Reference: publication PMC4503993
Results are given in words; binding and its absence hold for the method and conditions named. Binding seen in cells or lysates may run through a third protein. Here binding means that the protein was enriched with, or labelled near, the bait; the list need not be complete.

Target: GST-KIF17b-CTD (C-terminal domain of KIF17b) (mouse)
Assay: affinity purification with mass spectrometry; purified GST-KIF17b-CTD on glutathione-Sepharose beads as bait, incubated with testes lysate; cargo identified by 1D LC-MS; only the target purified

- binding: binds
B1: MVH (endogenous, mouse testes) (protein, UniProt Q61496 1-702)
chain: MGDEDWEAEILKPHVSSYVPVFEKDKYSSGANGDTFNRTSASSDIGESSKKENTSTTGGFGRGKGFGNRGFLNNKFEEGDSSGFWKESNNDCEDNQTRSRGFSKRGGCQDGNDSEASGPFRRGGRGSFRGCRGGFGLGRPNSESDQDQGTQRGGGLFGSRKPAASDSGNGDTYQSRSGSGRGGYKGLNEEVVTGSGKNSWKSETEGGESSDSQGPKVTYIPPPPPEDEDSIFAHYQTGINFDKYDTILVEVSGHDAPPAILTFEEANLCQTLNNNIAKAGYTKLTPVQKYSIPIVLAGRDLMACAQTGSGKTAAFLLPILAHMMRDGITASRFKELQEPECIIVAPTRELINQIYLEARKFSFGTCVRAVVIYGGTQFGHSVRQIVQGCNILCATPGRLMDIIGKEKIGLKQVKYLVLDEADRMLDMGFGPEMKKLISCPGMPSKEQRQTLLFSATFPEEIQRLAGDFLKSSYLFVAVGQVGGACRDVQQTILQVGQYSKREKLVEILRNIGDERTMVFVETKKKADFIATFLCQEKISTTSIHGDREQREREQALGDFRCGKCPVLVATSVAARGLDIENVQHVINFDLPSTIDEYVHRIGRTGRCGNTGRAISFFDTDSDNHLAQPLVKVLSDAQQDVPAWLEEIAFSTYVPPSFSSSTRGGAVFASVDTRKNYQGKHTLNTAGISSSQAPNPVDDESWD
